Source: PMC5290147
These are yes or no findings as the source states them, for the method shown. In cells and extracts the contact can be indirect. Binding calls can cover weak binding; strength is not graded here.

Molecular target: T1, β3 wild-type cytoplasmic tail peptide
T1 sequence (peptide, desthiobiotinylated (position not stated); free C-terminus (-OH)): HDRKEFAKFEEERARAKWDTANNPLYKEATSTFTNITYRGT
Assay: pull-down; desthiobiotinylated peptides immobilised on Dynabeads MyOne Streptavidin C1; 1 mg pKO-αV/β1 fibroblast lysate, overnight at 4 °C; western blot; only the target purified

binding: binds
Substance: talin
